Record: PubChem BioAssay AID1259276 (Sanger Institute, 2017)
Purpose: 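Kinase knock-downs that reduce colorectal cancer cell viability alone or with anchor drugs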 (primary screen). System: human C2BBe1 colorectal cancer cells. Reagent: siRNA pool against human genes. Conditions: DMSO vehicle, or one anchor drug: BYL719 at 1 µM, cetuximab at 5 µg/ml, or trametinib at 10 nM; exposure length not stated. Measured: 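Cell viability as a fraction of non-targeting control wells, mean of replicates, also as a control-based robust z-score, plus a synergy score for each anchor drug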. Reading the numbers: viability robust z-score, siRNA alone and viability vs control, siRNA alone: higher = more viable cells after knock-down; synergy score with BYL719: higher = stronger combined killing with BYL719; synergy score with cetuximab: higher = stronger combined killing with cetuximab; synergy score with trametinib: higher = stronger combined killing with trametinib. Rule for the call: 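a siRNA pool tested without drug is essential if its viability robust z-score falls under -3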. Calls: active = essential (siRNA alone); inactive = no change (siRNA alone).
In all, the deposit lists 794 reagents; shown is a part drawn at random. In the full data, 24 (3%) were called active. 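Calls come only from the siRNA-alone arm; drug synergy scores do not affect them.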 A number with no mark means an inactive call. Viability is capped at 1. No sequences are given here. The record does not give: the amount of reagent, the time to read-out.

| Gene | viability robust z-score, siRNA alone | viability vs control, siRNA alone | synergy score with BYL719 | synergy score with cetuximab | synergy score with trametinib |
| --- | --- | --- | --- | --- | --- |
| STK38L (serine/threonine kinase 38 like) | -2.85 | 0.791 | 0.0488 | -0.141 | -0.13 |
| PCBP1 (poly(rC) binding protein 1) | -0.773 | 0.921 | -0.0471 | -0.011 | -0.00998 |
| STK40 (serine/threonine kinase 40) | 0.472 | 1 | -0.0844 | 0.071 | -0.0667 |
| CDK2 (cyclin dependent kinase 2) | 0.472 | 1 | -0.019 | -0.00835 | -0.0667 |
| PRKAR1B (protein kinase cAMP-dependent type I regulatory subunit beta) | 0.472 | 1 | 0.115 | 0.239 | -0.0667 |
| MAP3K8 (mitogen-activated protein kinase kinase kinase 8) | -0.0488 | 0.967 | 0.203 | 0.0245 | 0.0641 |
| ABL1 (ABL proto-oncogene 1, non-receptor tyrosine kinase) | 0.472 | 1 | -0.106 | 0.085 | -0.0667 |
| EEF2K (eukaryotic elongation factor 2 kinase) | -0.331 | 0.949 | 0.232 | 0.0989 | 0.00447 |
| PTK2B (protein tyrosine kinase 2 beta) | 0.472 | 1 | -0.109 | 0.214 | 0.0758 |
| ITK (IL2 inducible T cell kinase) | 0.472 | 1 | -0.105 | 0.741 | -0.0667 |
| PCK2 (phosphoenolpyruvate carboxykinase 2, mitochondrial) | 0.472 | 1 | -0.142 | -0.0115 | -0.0667 |
| LIMK1 (LIM domain kinase 1) | 0.472 | 1 | -0.142 | -0.0115 | -0.0667 |
| PFKFB2 (6-phosphofructo-2-kinase/fructose-2,6-biphosphatase 2) | -2.74 | 0.798 | 0.0234 | -0.0953 | -0.0132 |
| PRKAG1 (protein kinase AMP-activated non-catalytic subunit gamma 1) | 0.472 | 1 | -0.142 | 0.19 | -0.0376 |
| TNNI3K (TNNI3 interacting kinase) | 0.472 | 1 | -0.142 | -0.0115 | -0.0667 |
| CDK17 (cyclin dependent kinase 17) | 0.00626 | 0.971 | 0.0406 | -0.0405 | 0.0165 |
| CKMT1B (creatine kinase, mitochondrial 1B) | 0.472 | 1 | -0.142 | -0.0115 | 0.161 |
| ADCK1 (aarF domain containing kinase 1) | 0.472 | 1 | 0.0806 | -0.0115 | -0.0667 |
| EPHB6 (EPH receptor B6) | 0.472 | 1 | 0.0115 | -0.0115 | -0.0667 |
| MAP3K13 (mitogen-activated protein kinase kinase kinase 13) | -3.1 (active) | 0.775 | -0.17 | -0.149 | -0.158 |
| EPHA10 (EPH receptor A10) | -0.813 | 0.919 | 0.0418 | 0.226 | -0.0205 |
| DNMT3A (DNA methyltransferase 3 alpha) | 0.472 | 1 | -0.0685 | -0.0115 | -0.0667 |
| MVK (mevalonate kinase) | 0.472 | 1 | -0.13 | -0.0115 | -0.0667 |

Next part; the last 3 above are carried over.
| Gene | viability robust z-score, siRNA alone | viability vs control, siRNA alone | synergy score with BYL719 | synergy score with cetuximab | synergy score with trametinib |
| --- | --- | --- | --- | --- | --- |
| EPHA10 (EPH receptor A10) | -0.813 | 0.919 | 0.0418 | 0.226 | -0.0205 |
| DNMT3A (DNA methyltransferase 3 alpha) | 0.472 | 1 | -0.0685 | -0.0115 | -0.0667 |
| MVK (mevalonate kinase) | 0.472 | 1 | -0.13 | -0.0115 | -0.0667 |
| GRK7 (G protein-coupled receptor kinase 7) | -0.685 | 0.927 | 0.0588 | -0.0835 | -0.135 |
| CEP290 (centrosomal protein 290) | 0.472 | 1 | -0.142 | 0.0721 | 0.00886 |
| COMMD3 (COMM domain containing 3) | 0.472 | 1 | 0.0601 | 0.0674 | 0.124 |
| CDK13 (cyclin dependent kinase 13) | 0.472 | 1 | 0.0363 | -0.0115 | -0.0667 |
| MARK1 (microtubule affinity regulating kinase 1) | 0.472 | 1 | -0.111 | -0.0115 | -0.0658 |
| PFKFB3 (6-phosphofructo-2-kinase/fructose-2,6-biphosphatase 3) | -0.0696 | 0.966 | 0.23 | 0.159 | -0.0986 |
| RUNX1 (RUNX family transcription factor 1) | 0.472 | 1 | 0.00626 | 0.188 | 0.0427 |
| CLK3 (CDC like kinase 3) | 0.472 | 1 | -0.0665 | 0.0131 | -0.0667 |
| DAPK3 (death associated protein kinase 3) | 0.472 | 1 | 0.137 | 0.0623 | 0.143 |
| CDKL4 (cyclin dependent kinase like 4) | -1.36 | 0.885 | -0.0117 | -0.112 | 0.0611 |
| PAPSS1 (3'-phosphoadenosine 5'-phosphosulfate synthase 1) | 0.472 | 1 | -0.112 | -0.0115 | -0.0667 |
| CDK9 (cyclin dependent kinase 9) | 0.472 | 1 | -0.134 | 0.123 | -0.0667 |
| BRWD1 (bromodomain and WD repeat domain containing 1) | 0.472 | 1 | -0.018 | 0.0136 | 0.019 |
| ACVR2A (activin A receptor type 2A) | 0.472 | 1 | 0.164 | 0.246 | 0.464 |
| MST1R (macrophage stimulating 1 receptor) | 0.472 | 1 | 0.0816 | -0.0115 | -0.0667 |
| EIF2AK4 (eukaryotic translation initiation factor 2 alpha kinase 4) | 0.472 | 1 | -0.0281 | -0.0115 | -0.0667 |
| GUCY2EP (guanylate cyclase 2E, pseudogene) | 0.472 | 1 | 0.188 | 0.0546 | -0.0667 |
| FGFR2 (fibroblast growth factor receptor 2) | -0.947 | 0.911 | 0.092 | -0.0999 | 0.0526 |
| CLK4 (CDC like kinase 4) | -1.78 | 0.858 | -0.0319 | -0.0851 | -0.114 |
| IRAK1 (interleukin 1 receptor associated kinase 1) | -1.93 | 0.849 | -0.106 | -0.124 | -0.17 |
| GOLGA5 (golgin A5) | 0.472 | 1 | -0.0957 | 0.417 | -0.0667 |
| MAPKAPK2 (MAPK activated protein kinase 2) | -0.634 | 0.93 | 0.313 | -0.0804 | -0.132 |
| PIK3R1 (phosphoinositide-3-kinase regulatory subunit 1) | -0.126 | 0.962 | -0.105 | -0.0487 | -0.102 |
| MYO3B (myosin IIIB) | -0.777 | 0.921 | 0.0423 | 0.0681 | -0.14 |
| PIP5K1A (phosphatidylinositol-4-phosphate 5-kinase type 1 alpha) | -1.78 | 0.858 | -0.132 | -0.152 | -0.199 |
| PRKAR1A | 0.472 | 1 | 0.118 | 0.00673 | -0.0667 |
| CSNK1E (casein kinase 1 epsilon) | -1.27 | 0.89 | -0.177 | 0.0793 | -0.169 |
